This note sets out measurements from doi:10.1101/2024.01.27.577582.

This experiment has as its target T1, KSHV ORF57 protein (Kaposi's sarcoma-associated herpesvirus (KSHV)) (UniProt Q2HR75).
T1 sequence: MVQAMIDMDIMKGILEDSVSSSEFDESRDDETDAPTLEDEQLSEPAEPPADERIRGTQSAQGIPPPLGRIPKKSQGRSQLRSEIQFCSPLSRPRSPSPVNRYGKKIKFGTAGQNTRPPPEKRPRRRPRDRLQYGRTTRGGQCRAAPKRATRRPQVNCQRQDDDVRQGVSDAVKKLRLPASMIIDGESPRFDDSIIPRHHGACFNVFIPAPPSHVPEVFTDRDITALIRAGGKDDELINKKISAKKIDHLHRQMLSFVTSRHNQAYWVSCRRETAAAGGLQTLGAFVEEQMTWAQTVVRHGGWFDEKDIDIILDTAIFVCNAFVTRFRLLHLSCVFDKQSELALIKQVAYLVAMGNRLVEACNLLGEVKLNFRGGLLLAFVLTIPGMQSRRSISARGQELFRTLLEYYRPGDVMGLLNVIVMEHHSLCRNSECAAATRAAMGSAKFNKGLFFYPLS
As to the kind of experiment: co-IP; total lysate (RIPA) of HEK293T cells co-transfected with ORF57 and AEN-FLAG-myc vectors for 24 h; IP with anti-ORF57 or anti-myc antibody on protein A beads in 1 x IP buffer overnight at 4°C; Western blot.

No constants are given. Whether binding was seen depends on the method and setting. In cells and extracts the contact can be indirect. Sequences can lack the tags named with a protein.

B1: AEN-FLAG-myc (apoptosis enhancing nuclease) (enzyme, UniProt Q8WTP8 1-325)
chain: MVPREAPESAQCLCPSLTIPNAKDVLRKRHKRRSRQHQRFMARKALLQEQGLLSMPPEPGSSPLPTPFGAATATEAASSGKQCLRAGSGSAPCSRRPAPGKASGPLPSKCVAIDCEMVGTGPRGRVSELARCSIVSYHGNVLYDKYIRPEMPIADYRTRWSGITRQHMRKAVPFQVAQKEILKLLKGKVVVGHALHNDFQALKYVHPRSQTRDTTYVPNFLSEPGLHTRARVSLKDLALQLLHKKIQVGQHGHSSVEDATTAMELYRLVEVQWEQQEARSLWTCPEDREPDSSTDMEQYMEDQYWPDDLAHGSRGGAREAQDRRN
For B1, the binding result is recorded as “no binding”.
